# Experimental data from PubChem BioAssay AID1014 (NMMLSC, 2008).
# This list holds what a sample rich in hits left over. Active and inactive are the calls of the source. No stated cut-off is given here; in the data, active means inhibition of mean fluorescence above about 33%; inactive means the rest.
# Assay: blockers of bacterial quorum-sensing reporter fluorescence – flow cytometry, SAR analogs, SAR follow-up (AID 1014);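 further: Staphylococcus aureus RN6390 with RNAIII-GFP reporter stimulated by AIP; bacteria incubated with compound for 3 hours at 37 °C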
# Conditions: at 20 µM, stronger effect = higher value; inhibition of percent positive cells: measured here: percent reporter-positive cells
smiles,measurement,value
O=C(O)c1ccc(Nc2nccc(Nc3ccccc3C(=O)O)n2)cc1,inhibition of mean fluorescence,inactive: -6.3%
same,inhibition of percent positive cells,-0.3%
